Measurements as given in article PMC6283830.
No constants are given. Whether binding was seen depends on the method and setting. In cells and extracts the contact can be indirect. Some entries that bind do so weakly or less than the wild type.

Protein sequences, listed by entry. Tags and fused reporters are not part of them.
UniProt P10275: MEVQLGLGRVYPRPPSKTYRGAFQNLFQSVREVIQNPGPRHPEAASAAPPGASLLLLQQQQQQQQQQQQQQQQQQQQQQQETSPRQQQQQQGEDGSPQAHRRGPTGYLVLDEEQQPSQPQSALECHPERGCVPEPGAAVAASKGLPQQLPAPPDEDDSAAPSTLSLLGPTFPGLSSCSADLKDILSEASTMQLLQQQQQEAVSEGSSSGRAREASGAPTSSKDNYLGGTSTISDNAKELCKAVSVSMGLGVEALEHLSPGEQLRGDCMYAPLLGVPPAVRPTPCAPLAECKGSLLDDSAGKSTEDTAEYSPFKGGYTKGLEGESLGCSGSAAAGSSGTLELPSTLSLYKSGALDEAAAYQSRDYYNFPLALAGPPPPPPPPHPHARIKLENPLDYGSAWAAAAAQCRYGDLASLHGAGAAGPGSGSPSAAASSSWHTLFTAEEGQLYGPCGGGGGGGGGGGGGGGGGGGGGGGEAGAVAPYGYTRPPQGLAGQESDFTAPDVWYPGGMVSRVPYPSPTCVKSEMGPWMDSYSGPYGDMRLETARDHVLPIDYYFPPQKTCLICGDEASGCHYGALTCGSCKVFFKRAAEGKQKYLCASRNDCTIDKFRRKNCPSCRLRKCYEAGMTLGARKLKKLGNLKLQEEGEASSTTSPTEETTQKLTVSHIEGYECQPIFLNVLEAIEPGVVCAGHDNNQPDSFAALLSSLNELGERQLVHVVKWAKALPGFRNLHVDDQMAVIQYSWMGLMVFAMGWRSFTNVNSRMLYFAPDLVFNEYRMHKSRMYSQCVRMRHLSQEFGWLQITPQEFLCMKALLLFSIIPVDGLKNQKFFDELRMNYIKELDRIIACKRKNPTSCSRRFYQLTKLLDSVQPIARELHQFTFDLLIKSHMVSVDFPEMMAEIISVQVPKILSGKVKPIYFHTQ
UniProt P40763: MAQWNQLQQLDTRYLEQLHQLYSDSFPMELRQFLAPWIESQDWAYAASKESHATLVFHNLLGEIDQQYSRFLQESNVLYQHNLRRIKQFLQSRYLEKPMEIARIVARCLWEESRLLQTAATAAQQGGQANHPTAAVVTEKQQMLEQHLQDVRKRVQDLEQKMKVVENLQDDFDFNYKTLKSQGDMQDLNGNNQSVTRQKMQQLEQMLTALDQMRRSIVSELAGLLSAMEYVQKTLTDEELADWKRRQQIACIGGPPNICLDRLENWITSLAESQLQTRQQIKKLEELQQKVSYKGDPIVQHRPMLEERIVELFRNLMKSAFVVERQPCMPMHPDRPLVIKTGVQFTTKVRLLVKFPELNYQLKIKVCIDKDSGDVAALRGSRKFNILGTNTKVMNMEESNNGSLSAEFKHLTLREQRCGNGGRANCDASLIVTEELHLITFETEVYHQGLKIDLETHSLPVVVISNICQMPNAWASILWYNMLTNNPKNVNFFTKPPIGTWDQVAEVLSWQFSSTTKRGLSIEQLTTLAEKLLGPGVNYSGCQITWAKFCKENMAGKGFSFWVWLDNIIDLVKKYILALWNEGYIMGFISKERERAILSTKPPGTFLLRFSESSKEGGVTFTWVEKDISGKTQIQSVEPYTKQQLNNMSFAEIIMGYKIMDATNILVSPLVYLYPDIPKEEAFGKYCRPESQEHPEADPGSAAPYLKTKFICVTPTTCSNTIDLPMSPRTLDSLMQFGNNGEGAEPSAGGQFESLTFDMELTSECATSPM

Key:
[1] = biological target: androgen receptor (human (endogenous in LO2 and SK-Hep1)) (UniProt P10275); assay: condition: only cells transfected with empty vector (no ectopic CCRK); co-IP; as a1, but cells transfected with empty vector
[2] = biological target: androgen receptor (human (endogenous in LO2 and SK-Hep1)) (UniProt P10275); assay: condition: only cells transfected with kinase-defective (KD) CCRK; co-IP; as a1, but cells transfected with kinase-defective (KD, T161A) CCRK
[3] = biological target: androgen receptor (human (endogenous in LO2 and SK-Hep1)) (UniProt P10275); assay: co-IP; lysates of LO2 and SK-Hep1 cells transfected with WT CCRK; immunoprecipitated with anti-p-STAT3 Tyr705 or anti-AR (IgG as control) at 4 °C overnight, protein A/G beads; co-IP lysis buffer 20 mM Tris pH 7.5, 150 mM NaCl, 1.0% Triton X-100, 1 mM EDTA; detected by western blot

binding [1]: no binding
binding [2]: no binding
binding [3]: binds
Substance: STAT3 phosphorylated at Tyr705 (signal transducer and activator of transcription 3) (from UniProt P40763 1-770)
